Measurements: patent US20130130320, “ENZYMES” (published 2013)
Numbering of substitutions follows the chain as printed. Construct, isoform or probe ends are uncertain for at least one entry. For some of these results: Where a protein sequence is shown, tags need not be part of it.

Key:
[1] = biological target: T1, D4N (D4N3, D4 Y409N) (Thermococcus gorgonarius) (UniProt P56689); experiment: activity assay; details: primer strand is RNA (bases printed as DNA); time to full-length 65 nt tRNA; purified recombinant protein; label: 5'-FITC primer; DNA:RNA hybrid
T1 sequence: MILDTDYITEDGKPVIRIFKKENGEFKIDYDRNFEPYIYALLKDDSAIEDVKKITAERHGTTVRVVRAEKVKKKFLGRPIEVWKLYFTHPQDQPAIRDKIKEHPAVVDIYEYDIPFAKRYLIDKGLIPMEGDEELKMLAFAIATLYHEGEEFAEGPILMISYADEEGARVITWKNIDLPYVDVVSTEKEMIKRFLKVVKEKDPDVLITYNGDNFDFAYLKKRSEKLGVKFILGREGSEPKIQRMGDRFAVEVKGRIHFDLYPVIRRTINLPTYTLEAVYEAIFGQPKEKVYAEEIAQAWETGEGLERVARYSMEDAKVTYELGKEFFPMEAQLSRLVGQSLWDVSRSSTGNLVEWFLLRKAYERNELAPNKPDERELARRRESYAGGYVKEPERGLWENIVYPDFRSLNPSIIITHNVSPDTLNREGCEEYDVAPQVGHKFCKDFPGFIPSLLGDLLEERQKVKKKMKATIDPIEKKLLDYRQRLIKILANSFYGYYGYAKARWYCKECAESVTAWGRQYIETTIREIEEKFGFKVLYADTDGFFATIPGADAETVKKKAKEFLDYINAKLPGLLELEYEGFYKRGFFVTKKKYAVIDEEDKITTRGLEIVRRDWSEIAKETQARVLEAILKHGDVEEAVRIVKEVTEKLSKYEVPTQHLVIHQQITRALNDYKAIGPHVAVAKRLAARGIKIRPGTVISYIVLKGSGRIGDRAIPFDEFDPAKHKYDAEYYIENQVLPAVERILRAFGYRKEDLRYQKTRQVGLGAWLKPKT

[2] = biological target: T2, TGK (TgoT Y409G E664K) (Thermococcus gorgonarius) (UniProt P56689); experiment: activity assay; details: primer strand is RNA (bases printed as DNA); time to full-length 65 nt tRNA; Thermopol + 3 mM MgSO4, 65 C; purified recombinant protein; label: 5'-FITC primer; DNA:RNA hybrid
T2 sequence: T1 sequence with P403L, N409G, T657P, Q658E, H659K, H663Y, Q664K, A669D, N671K, I676T

[3] = biological target: TNQ (TgoT Y409N E664Q) (Thermococcus gorgonarius) (UniProt P56689); experiment: activity assay; details: primer strand is RNA (bases printed as DNA); time to full-length 65 nt tRNA; purified recombinant protein; label: 5'-FITC primer; DNA:RNA hybrid
[4] = biological target: T2, TGK (TgoT Y409G E664K) (Thermococcus gorgonarius); experiment: EMSA; details: K0 strand is RNA (bases printed as DNA); second gate mutation vs parental E664; individual mutants and Kd values not stated; Thermopol, 1 mM EDTA; purified recombinant protein; label: 5'-FITC primer, 5'-biotin template; DNA:RNA hybrid

| Sequence | activity on this sequence [1] | activity on this sequence [2] | activity on this sequence [3] | binding result [4] |
| --- | --- | --- | --- | --- |
| GGTGGGGTTCCCGAGCGGCCAAAGGGAGCAGACTCTAAATCTGCCGTCATCGACTTCGAAGGTTCGAATCCTTCCCCCACCACCA / CAGGAAACAGCTATGACAAATGGTGGTGGGG [tRNAtempl / YtRHNA2HNA2 RNA primer] | 20 min | < 30 s | < 10 min | – |
| GCACGGCAGCACGTG / ACTGCGATGACTGTACTCGTCTAGTAGCACTGCACGTGCTGCCGTGC [K0 RNA primer / TempK4] | – | – | – | binds |
